Reference: PubChem BioAssay AID1259424 (University of Nebraska Medical Center, 2018)

- Test: 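Rank knockdowns across the genome by resemblance to the KSR1 depletion profile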 (primary screen)
- Cell system: human HCT116 colon cancer cells
- Knock-down reagent: siRNA pool against human genes, 50 nM
- Measured: 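Log2 levels of six mRNAs (branched-DNA multiplex), adjusted by two reference genes and the non-targeting median, then scored against the average KSR1 knockdown pattern as Pearson r and euclidean distance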
- Scale: mean correlation with KSR1 profile: higher = expression change more like KSR1 knockdown; mean distance from KSR1 profile: higher = expression change less like KSR1 knockdown
Here is one part, drawn at random, of about 14,000 reagents. 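Higher correlation or smaller distance means closer resemblance to KSR1 loss; control wells, including KSR1 knockdowns, recur on many plates.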 Further read-outs or replicates are left out here. Not stated in the record: the time to read-out.

no.	gene symbol	mean correlation with KSR1 profile	mean distance from KSR1 profile
1	SLC35A2	-0.574	2.91
2	MAGEB1	0.111	1.38
3	PRKCQ	0.204	1.68
4	MPIG6B	0.278	1.93
5	PARPBP	-0.761	1.84
6	SOX13	-0.756	2.38
7	ZNF335	-0.14	2.56
8	TACC3	-0.701	2.55
9	TTC17	-0.515	2.97
10	ADAMTS12	-0.0673	2.15
11	AKAP10	-0.675	2.34
12	ANKRD39	-0.74	2.28
13	CTIF	-0.392	5.1
14	CYP2C8	-0.133	2.57
15	CYB5R1	-0.814	3.21
16	ASAH1	-0.432	4.56
17	TIMM9	0.0116	2.21
18	CEBPZ	0.0473	3.18
19	ABCG2	0.387	1.39
20	FLVCR1	-0.733	2.06
21	RFPL2	-0.169	2.33
22	ITGB3	0.62	1.01
23	TBC1D7	-0.677	1.82
24	TAS1R3	0.27	3.63
25	CYP26A1	-0.355	3.25
26	DPYD	0.0777	1.7
27	KLK3	-0.358	2.93
28	TUFT1	-0.217	3.66
29	NDUFV1	0.317	1.11
30	HUWE1	-0.614	1.49
31	GDF11	-0.15	2.15
32	ATG16L1	0.124	2.79
33	GGT7	0.375	1.1
34	ADCY2	-0.134	2.07
35	LTBP1	-0.366	2.32
36	ERCC6L2	-0.469	1.72
37	UBASH3B	0.964	2.71
38	UQCRC2	-0.42	2.82
39	QRICH2	0.77	2.12
40	FCGR1A	-0.746	2.19
41	PLCB4	0.795	1.25
42	DIO1	-0.252	3.76
43	SFTPA1	0.188	1.15
44	CHRNB3	-0.651	1.29
45	LYVE1	0.254	2.26
46	MOBP	-0.3	1.8
47	SSH2	0.0843	1.36
48	LPIN2	0.577	0.761
49	CFC1	0.423	1.5
50	RTCB	-0.623	3

Not a retest: 7 of the entries above.
no.	gene symbol	mean correlation with KSR1 profile	mean distance from KSR1 profile
2	MAGEB1	0.111	1.38
3	PRKCQ	0.204	1.68
4	MPIG6B	0.278	1.93
5	PARPBP	-0.761	1.84
6	SOX13	-0.756	2.38
7	ZNF335	-0.14	2.56
8	TACC3	-0.701	2.55
